Experimental data taken from PubChem BioAssay AID328 (DTP/NCI, 2004).
The list is a part of this screen's results and no random one: it is rich in T/C values a quarter to a half above the control, in often repeated tests (any T/C) and in doses without a T/C. Other doses and runs of a compound stand elsewhere. T/C: endpoint of the treated group in % of that of the vehicle group. Some doses have a count of surviving animals in place of a T/C: the source files T/C as zero there, which appears to mark a toxic dose or a test without result, not a measured value. Some doses without a T/C left all or most animals alive at the check, yet need not have been tolerated: survival well below the control is almost never listed, so the zero probably covers shortened survival too. Survivors were counted at the toxicity check, usually on the fifth day, unless a day is given; later deaths do not show. Schedules are NCI's codes, read here as Q, the interval in days (D) or hours (H), X, the number of doses. Some entries hold several experiments; the results are listed from low to high. For survival time, this PubChem deposit counts one and a half times the control or more as active, and values a quarter to a half above the control carry no call in these data; other NCI protocols may use other cut-offs. Some T/C values carry the count of animals alive at the toxicity check (mostly the fifth day); without a count, all were alive then. Additions like (4×) say how often a value occurs here.

System: BDF1 mice, P388 leukemia ip, median survival T/C
Assay: NCI In Vivo Anticancer Drug Screen. Data for tumor model P388 Leukemia (intraperitoneal) in B6D2F1 (BDF1) mice
Details: T/C endpoint: median survival time, higher T/C = longer survival
How it was run: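 Mice carrying the transplantable tumour receive compound or vehicle. Survival is followed in each arm, and the treated measure is divided by the vehicle measure.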

[1] = dose: 0.25 mg/kg/injection, schedule: Q01DX009 (ip), vehicle: water
[2] = dose: 0.25 mg/kg/injection, schedule: Q04DX003 (ip), vehicle: water
[3] = dose: 0.5 mg/kg/injection, schedule: Q01DX009 (ip), vehicle: water

CC[C@]1(O)C[C@H]2CN(CCc3c([nH]c4ccccc34)[C@@](C(=O)OC)(c3cc4c(cc3OC)N(C=O)[C@H]3[C@@](O)(C(=O)OC)[C@H](OC(C)=O)[C@]5(CC)C=CCN6CC[C@]43[C@@H]65)C2)C1
T/C (dose: 0.01 mg/kg/injection, schedule: Q01DX009 (ip), vehicle: water): 129 % of control
T/C (dose: 0.03 mg/kg/injection, schedule: Q01DX009 (ip), vehicle: water, evaluated on day 30): 133 % of control
T/C (dose: 0.03 mg/kg/injection, schedule: Q01DX009 (ip), vehicle: water, evaluated on day 32): 128 % of control
T/C (dose: 0.06 mg/kg/injection, schedule: Q01DX009 (ip), vehicle: water, evaluated on day 30): 100, 171, 172, 177 % of control
T/C (dose: 0.06 mg/kg/injection, schedule: Q01DX009 (ip), vehicle: water, evaluated on day 32): 103 % of control
survivor count (dose: 0.06 mg/kg/injection, schedule: Q01DX009 (ip), vehicle: water): 5 of 6 and 6 of 6
T/C (dose: 0.12 mg/kg/injection, schedule: Q01DX009 (ip), vehicle: water, evaluated on day 30): 168, 177, 200, 216 % of control
T/C (dose: 0.12 mg/kg/injection, schedule: Q01DX009 (ip), vehicle: water, evaluated on day 32): 195 % of control
survivor count (dose: 0.12 mg/kg/injection, schedule: Q01DX009 (ip), vehicle: water): 2 of 6 and 3 of 6
T/C (dose: 0.12 mg/kg/injection, schedule: Q04DX003 (ip), vehicle: water): 136 % of control
T/C (dose: 0.2 mg/kg/injection, schedule: Q04DX002 (ip), vehicle: saline): 141 % of control
T/C (dose: 0.25 mg/kg/injection, schedule: Q01DX001 (ip), vehicle: saline): 137 % of control
T/C [1]: 150, 161, 200, 204 % of control
survivor count [1]: 2 of 6 and 3 of 6
T/C [2]: 131 % of control
survivor count [2]: 6 of 6
survivor count (dose: 0.33 mg/kg/injection, schedule: Q01DX009 (ip), vehicle: clinical formulation): 10 of 10
T/C (dose: 0.5 mg/kg/injection, schedule: Q01DX001 (ip), vehicle: saline): 142 % of control
T/C (dose: 0.5 mg/kg/injection, schedule: Q01DX001 (ip), vehicle: water): 142 % of control
survivor count (dose: 0.5 mg/kg/injection, schedule: Q01DX009 (ip), vehicle: clinical formulation): 10 of 10
survivor count (dose: 0.5 mg/kg/injection, schedule: Q01DX009 (ip), vehicle: saline): 6 of 6
T/C [3]: 90 and 94 % of control
survivor count [3]: 0 of 6, 1 of 6, 6 of 6
survivor count (dose: 0.5 mg/kg/injection, schedule: Q01DX010 (ip), vehicle: saline): 6 of 6
T/C (dose: 0.5 mg/kg/injection, schedule: Q04DX003 (ip), vehicle: water, evaluated on day 11): 127 % of control [6 of 7 alive]
T/C (dose: 0.5 mg/kg/injection, schedule: Q04DX003 (ip), vehicle: water, evaluated on day 34): 136 % of control
T/C (dose: 0.67 mg/kg/injection, schedule: Q04DX003 (ip), vehicle: saline, evaluated on day 5): 264 % of control
T/C (dose: 0.67 mg/kg/injection, schedule: Q04DX003 (ip), vehicle: saline, evaluated on day 60): 225, 242, 254 % of control
T/C (dose: 0.72 mg/kg/injection, schedule: Q04DX003 (ip), vehicle: saline): 143 % of control
T/C (dose: 0.8 mg/kg/injection, schedule: Q04DX003 (ip), vehicle: saline, evaluated on day 5): 191 and 233 % of control
T/C (dose: 0.8 mg/kg/injection, schedule: Q04DX003 (ip), vehicle: saline, evaluated on day 60): 191, 200, 221, 222, 233, 261, 264 % of control
T/C (dose: 1.0 mg/kg/injection, schedule: Q01DX001 (ip), vehicle: saline): 144 % of control
survivor count (dose: 1.0 mg/kg/injection, schedule: Q01DX009 (ip), vehicle: saline): 5 of 6
survivor count (dose: 1.0 mg/kg/injection, schedule: Q01DX009 (ip), vehicle: water): 4 of 6 and 6 of 6
T/C (dose: 1.0 mg/kg/injection, schedule: Q04DX003 (ip), vehicle: saline, evaluated on day 5): 167, 221, 235 % of control
T/C (dose: 1.0 mg/kg/injection, schedule: Q04DX003 (ip), vehicle: saline, evaluated on day 60): 221, 248, 250, 266, 279, 300 % of control
T/C (dose: 1.0 mg/kg/injection, schedule: Q04DX003 (ip), vehicle: water): 132 % of control [4 of 6 alive]
T/C (dose: 1.2 mg/kg/injection, schedule: Q04DX003 (ip), vehicle: saline, evaluated on day 5): 198 and 250 % of control
T/C (dose: 1.2 mg/kg/injection, schedule: Q04DX003 (ip), vehicle: saline, evaluated on day 60): 105, 198, 225, 250, 290, 328, 529 % of control
T/C (dose: 1.3 mg/kg/injection, schedule: Q01DX001 (ip), vehicle: saline, evaluated on day 5): 166, 171 (2×), 200 % of control
T/C (dose: 1.3 mg/kg/injection, schedule: Q01DX001 (ip), vehicle: saline, evaluated on day 60): 166, 171, 174, 200 % of control
T/C (dose: 1.5 mg/kg/injection, schedule: Q04DX003 (ip), vehicle: saline, evaluated on day 5): 171, 227, 232 % of control
T/C (dose: 1.5 mg/kg/injection, schedule: Q04DX003 (ip), vehicle: saline, evaluated on day 60): 227, 294, 505, 548 % of control
T/C (dose: 1.8 mg/kg/injection, schedule: Q04DX003 (ip), vehicle: saline, evaluated on day 5): 247 % of control
T/C (dose: 1.8 mg/kg/injection, schedule: Q04DX003 (ip), vehicle: saline, evaluated on day 60): 92, 118, 128, 482, 529 % of control
T/C (dose: 2.0 mg/kg/injection, schedule: Q01DX001 (ip), vehicle: saline, evaluated on day 5): 141, 167, 175, 194, 206 % of control
T/C (dose: 2.0 mg/kg/injection, schedule: Q01DX001 (ip), vehicle: saline, evaluated on day 35): 158 % of control [5 of 6 alive]
T/C (dose: 2.0 mg/kg/injection, schedule: Q01DX001 (ip), vehicle: saline, evaluated on day 60): 171, 175, 194, 200, 206 % of control
survivor count (dose: 2.0 mg/kg/injection, schedule: Q01DX009 (ip), vehicle: saline): 2 of 6
survivor count (dose: 2.0 mg/kg/injection, schedule: Q01DX009 (ip), vehicle: water): 0 of 6, 4 of 6, 5 of 6
T/C (dose: 2.0 mg/kg/injection, schedule: Q04DX003 (ip), vehicle: water): 140 % of control
T/C (dose: 3.0 mg/kg/injection, schedule: Q01DX001 (ip), vehicle: saline, evaluated on day 5): 136, 191, 194, 221 % of control
T/C (dose: 3.0 mg/kg/injection, schedule: Q01DX001 (ip), vehicle: saline, evaluated on day 60): 167, 191, 194 % of control
survivor count (dose: 4.0 mg/kg/injection, schedule: Q01DX001 (ip), vehicle: water): 4 of 6
survivor count (dose: 8.0 mg/kg/injection, schedule: Q01DX001 (ip), vehicle: saline): 6 of 10
survivor count (dose: 8.0 mg/kg/injection, schedule: Q01DX001 (ip), vehicle: water): 3 of 6
T/C (dose: 125.0 micrograms/kg/injection, schedule: Q01DX001 (ip), vehicle: clinical formulation): 138 % of control
survivor count (dose: 250.0 micrograms/kg/injection, schedule: Q03HX024 (ip), vehicle: clinical formulation): 8 of 10
survivor count (dose: 500.0 micrograms/kg/injection, schedule: Q01DX009 (ip), vehicle: clinical formulation): 10 of 10
survivor count (dose: 500.0 micrograms/kg/injection, schedule: Q03HX008 (ip), vehicle: clinical formulation): 5 of 10
T/C (dose: 1000.0 micrograms/kg/injection, schedule: Q04DX003 (ip), vehicle: saline): 237, 248, 271, 298 % of control
T/C (dose: 2000.0 micrograms/kg/injection, schedule: Q04DX003 (ip), vehicle: saline): 94, 100 [7 of 8 alive], 117 [7 of 8 alive], 118 % of control [6 of 8 alive]
